Data as given in PMC3985631.

How the values were obtained:
Experiment in all cases: filter binding
Conditions in all cases: Filter binding: 50 mM phosphate, 50 mM imidazole, 10 mM beta-mercaptoethanol, pH 7.5, room temperature, 30 min, 10 pmol 32P-labelled nucleic acid, recombinant protein, residues 1-259, label: 5'-32P
hN12 F149A (human) = hN12 F149A (human) (UniProt Q13148)
hN12 F229A-F231A (human) = hN12 F229A-F231A (human) (UniProt Q13148)
hN12 F147A-F149A (human) = hN12 F147A-F149A (human) (UniProt Q13148)
hN12 F147A (human) = hN12 F147A (human) (UniProt Q13148)
hN12 F231A (human) = hN12 F231A (human) (UniProt Q13148)
hN12 F229A (human) = hN12 F229A (human) (UniProt Q13148)
[1] = RRM1 mutants ~20-fold reduced, single-stranded DNA
[2] = RRM2 mutants 2- to 8-fold reduced, single-stranded DNA

Measured: binding result

TGTGTGTGTGTGTGTGTGTGTGTGTGTGTG [(TG)15 DNA]
binds more weakly: hN12 F149A (human); [1] | hN12 F229A-F231A (human); [2] | hN12 F147A-F149A (human); [1] | hN12 F147A (human); [1] | hN12 F231A (human); [2] | hN12 F229A (human); [2]

UGUGUGUGUGUGUGUGUGUGUGUGUGUGUG [(UG)15 RNA]
binds more weakly: hN12 F149A (human); RRM1 mutants ~50-fold reduced | hN12 F229A-F231A (human); RRM2 mutants ~2-fold reduced | hN12 F147A-F149A (human); RRM1 mutants ~50-fold reduced | hN12 F147A (human); RRM1 mutants ~50-fold reduced | hN12 F231A (human); RRM2 mutants ~2-fold reduced | hN12 F229A (human); RRM2 mutants ~2-fold reduced

The exact form of at least one protein or probe is not confirmed. Weaker means in comparison with the reference protein, sequence or condition of that experiment. At least one verdict was read from the data and is not stated in words by the source.
